{"source": "PubChem BioAssay AID720614", "about": "(Broad Institute, 2013)", "note": "Some of the results follow. Shown are side measurements of this screen, not its main read-out; they come without a call."}
{"experiment": "caspase 3/7 activation in SNB19 cells, mechanism study for HRAS target identification, cell-based, luminescence, several timepoints, dry powder (AID 720614)", "details": "SNB19 (HRAS) caspase 3/7 apoptosis luminescence, multiple timepoints, measured here: timepoint 3 max caspase activation, stronger effect = higher value; at 0.26 µM unless noted"}
{"compound": "O=C(NCCOCCOCCOc1ccc(N(C(=O)CCl)C(C(=O)NCCc2ccccc2)c2cccs2)cc1Cl)c1ccc(COC2C#CCCCCC2)cc1", "note": "(centres undefined)", "max activity": "16% [at 0.03 µM]"}
{"compound": "COc1ccc(N(C(=O)CCl)C(C(=O)NCCc2ccccc2)c2cccs2)cc1Cl", "note": "(centres undefined)", "max activity": "44%"}
{"compound": "COc1cccc2c1C(=O)c1c(O)c3c(c(O)c1C2=O)C[C@@](O)(C(=O)CO)C[C@@H]3OC1C[C@H](N)[C@H](O)[C@H](C)O1", "note": "(some centres undefined)", "max activity": "26.7% [at 0.008 µM]"}
{"compound": "C#CCCCC(=O)NCCOCCOCCOc1ccc(N(C(=O)CCl)C(C(=O)NCCc2ccccc2)c2cccs2)cc1Cl", "note": "(centres undefined)", "max activity": "-10.7% [at 0.0021 µM]"}
